Here are results for 3 compounds from paper PMC12663137 (Nature Communications, 2025).

Chains of the proteins cited; added tags and fusions are not shown. Residues count along the entry.
UniProt Q7L0J3, 141-742 F188A: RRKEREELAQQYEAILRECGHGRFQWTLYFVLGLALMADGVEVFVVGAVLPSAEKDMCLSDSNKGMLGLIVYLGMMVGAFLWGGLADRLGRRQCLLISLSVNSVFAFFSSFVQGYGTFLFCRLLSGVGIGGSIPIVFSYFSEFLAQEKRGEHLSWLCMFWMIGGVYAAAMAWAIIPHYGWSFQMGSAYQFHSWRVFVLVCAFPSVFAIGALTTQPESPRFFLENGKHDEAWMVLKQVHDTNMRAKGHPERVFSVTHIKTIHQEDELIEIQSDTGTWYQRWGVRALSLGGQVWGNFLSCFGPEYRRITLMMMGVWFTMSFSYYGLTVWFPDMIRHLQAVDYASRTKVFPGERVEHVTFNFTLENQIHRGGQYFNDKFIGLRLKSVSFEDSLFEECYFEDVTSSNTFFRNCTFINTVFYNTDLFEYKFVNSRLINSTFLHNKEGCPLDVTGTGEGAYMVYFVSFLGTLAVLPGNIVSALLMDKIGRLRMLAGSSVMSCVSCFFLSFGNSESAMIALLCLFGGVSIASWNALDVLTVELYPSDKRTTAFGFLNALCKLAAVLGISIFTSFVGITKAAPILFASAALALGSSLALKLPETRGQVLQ
UniProt Q7L0J3, whole entry: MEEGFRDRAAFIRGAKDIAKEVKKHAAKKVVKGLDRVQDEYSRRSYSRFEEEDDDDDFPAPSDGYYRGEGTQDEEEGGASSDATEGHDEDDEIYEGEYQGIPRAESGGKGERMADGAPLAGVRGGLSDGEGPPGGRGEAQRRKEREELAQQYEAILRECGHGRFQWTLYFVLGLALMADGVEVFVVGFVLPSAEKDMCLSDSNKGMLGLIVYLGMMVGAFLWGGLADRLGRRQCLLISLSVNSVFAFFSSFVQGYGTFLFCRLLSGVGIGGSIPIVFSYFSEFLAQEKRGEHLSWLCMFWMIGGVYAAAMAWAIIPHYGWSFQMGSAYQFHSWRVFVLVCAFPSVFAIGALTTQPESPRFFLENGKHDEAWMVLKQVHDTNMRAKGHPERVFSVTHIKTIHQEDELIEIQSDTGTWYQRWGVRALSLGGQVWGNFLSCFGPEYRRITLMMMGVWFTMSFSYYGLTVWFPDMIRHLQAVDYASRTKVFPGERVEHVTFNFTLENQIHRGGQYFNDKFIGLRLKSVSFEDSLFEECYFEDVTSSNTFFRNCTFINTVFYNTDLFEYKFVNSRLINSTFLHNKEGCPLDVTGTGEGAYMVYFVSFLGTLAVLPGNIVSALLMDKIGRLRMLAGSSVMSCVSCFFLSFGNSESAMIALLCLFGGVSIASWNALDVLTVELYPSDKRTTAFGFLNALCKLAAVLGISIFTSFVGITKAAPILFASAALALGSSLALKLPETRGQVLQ

Values joined by “and” are separate entries in the source; they are usually repeats but may differ in a detail not shown here. Equal entries are not always repeated. Further values from the same series stand in other lists.

Holding throughout (assay type): binding
Assay [1] deals with T1, SV2AEM WT or SV2AEM F188A (Homo sapiens, UniProt Q7L0J3).
T1 construct: expressed in transfected cells; host or cells: HEK293 (ATCC CRL-1573), crude membranes
Briefly: Dissociation kinetics of 3H-UCB-J (Fig. 4E). Conditions: WT. The procedure: (§1) Ligand binding studies were carried out using crude membranes prepared from HEK293 cells (ATCC, CRL-1573) overexpressing mVenus-SV2AWT or SV2AEM. Membranes were prepared either from transiently transfected cells or from baculovirus-infected cells as described previously. Cells were washed with DPBS (Ca^2+ and Mg^2+ free), followed by resuspending in cold SH buffer (10 mM HEPES-Tris pH 7.4, 320 mM sucrose) containing protease inhibitor cocktail (MedChemExpress) to a density of 10^7 cells/ml. This cell suspension was homogenized by passing through a bead homogenizer (Isobiotec) with 10-micron clearance bead on ice. The lysate was then centrifuged at 4000 × g for 5 min at 4 °C, and the supernatant was aliquoted, frozen in liquid nitrogen, and stored at −80 °C. The mVenus fluorescence estimated using fluorescence size-exclusion chromatography (FSEC) was used to normalize expression levels of mVenus-SV2A mutants studied as detailed previously. For all binding studies, membranes containing […] protein (estimated by BCA method) per reaction were used.
(§2) After 2 h of incubation, ligand dissociation was initiated with 0.3 µM ^1H-UCB-J and radioactivity was monitored at indicated time points by trapping equal volume of membranes on PEI-treated Unifilter-GF/C 96-well filter plates. Dissociation half-life (t1/2) estimates were obtained by fitting the data to one-phase exponential decay using GraphPad Prism 10.

Assay [2] concerns the target T2, SV2AEM WT or SV2AEM F188A (Homo sapiens, UniProt Q7L0J3, F188A).
T2 construct: expressed in transfected cells; host or cells: HEK293 (ATCC CRL-1573), crude membranes
Briefly: Dissociation kinetics of 3H-UCB-J (Fig. 4E). Conditions: F188A, 30 µM UCB1244283, 1 min. As to the method: as §1, §2

Assay [3] concerns the target T3, SV2AWT (Homo sapiens, UniProt Q7L0J3).
T3 construct: expressed in transfected cells; host or cells: HEK293 (ATCC CRL-1573), crude membranes
Briefly: Competitive displacement of 10 nM 3H-UCB-J, SV2AWT membranes (Fig. 1A). Conditions: SV2A_WT. As to the method: as §1
To obtain dose-response curves of studied SV2A ligands, membranes diluted in 0.2 ml binding buffer (50 mM Tris-Cl, pH 7.4, and 2 mM MgCl2) were incubated with indicated concentrations of ligands for 30 min at 4 °C. […] Radioactivity was monitored in MicroBeta2 plate counter (Revvity). […]

Consider `COc1ccccc1NC(=O)CC(C)Cc1cc(C)cc(C)c1` (stereo not drawn) [UCB1244283], for which the “3H-UCB-J Binding (%)” value was 73.54% and 130.00% and 124.67% in assay [1] (30 µM UCB1244283, 1 min); 74.53% and 115.05% and 117.86% in assay [1] (30 µM UCB1244283, 2 min); 75.27% and 132.61% and 111.58% in assay [1] (30 µM UCB1244283, 3 min); 56.86% and 87.40% in assay [2].

For `Cc1cnccc1CN1C[C@@H](c2cc(F)c(F)c(F)c2)CC1=O` [UCB-J], the “Binding of 3H-UCB-J (%)” value in assay [3] (Log [1H-UCB-J] (M) -5.000) is -0.58% and -0.14% and 0.00% and 0.14%.

For `COCc1nn2c(CN3C[C@@H](CC(F)(F)Cl)CC3=O)c(C(F)(F)F)nc2s1` [padsevonil], in assay [3] (Log [Padsevonil] (M) -5.523), the “Binding of 3H-UCB-J (%)” value is -0.02%.
